{
  "sequences": {"note": "The chains behind the UniProt entries cited, without tags or fusion partners. Where a name states a change or a piece, a line headed by the entry shows the natural chain unless it says otherwise.", "UniProt Q01973": "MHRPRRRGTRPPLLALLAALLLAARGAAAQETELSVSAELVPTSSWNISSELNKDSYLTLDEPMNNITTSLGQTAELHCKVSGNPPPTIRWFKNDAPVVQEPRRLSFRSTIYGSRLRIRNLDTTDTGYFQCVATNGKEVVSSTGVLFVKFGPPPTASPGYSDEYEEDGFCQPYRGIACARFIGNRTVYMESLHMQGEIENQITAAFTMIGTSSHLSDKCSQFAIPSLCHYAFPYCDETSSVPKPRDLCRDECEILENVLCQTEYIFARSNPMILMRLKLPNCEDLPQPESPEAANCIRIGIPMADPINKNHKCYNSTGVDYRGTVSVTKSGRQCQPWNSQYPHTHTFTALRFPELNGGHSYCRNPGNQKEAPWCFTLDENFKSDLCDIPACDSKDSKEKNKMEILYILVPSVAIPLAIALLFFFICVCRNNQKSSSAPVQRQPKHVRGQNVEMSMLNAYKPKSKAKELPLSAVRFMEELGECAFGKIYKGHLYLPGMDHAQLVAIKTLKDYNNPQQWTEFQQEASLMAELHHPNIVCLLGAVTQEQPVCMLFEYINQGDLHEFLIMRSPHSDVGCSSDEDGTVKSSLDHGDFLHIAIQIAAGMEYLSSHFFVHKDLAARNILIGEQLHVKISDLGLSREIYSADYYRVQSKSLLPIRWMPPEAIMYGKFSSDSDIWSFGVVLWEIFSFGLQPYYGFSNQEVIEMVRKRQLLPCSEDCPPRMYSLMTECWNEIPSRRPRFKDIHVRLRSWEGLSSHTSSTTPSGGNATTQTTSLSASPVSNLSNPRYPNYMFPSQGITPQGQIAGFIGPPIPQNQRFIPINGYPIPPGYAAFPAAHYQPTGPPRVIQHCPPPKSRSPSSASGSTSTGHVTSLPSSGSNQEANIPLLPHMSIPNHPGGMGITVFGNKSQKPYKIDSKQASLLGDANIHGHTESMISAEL"},
  "source": "patent US20240058467A1",
  "about": "(SUTRO BIOPHARMA, published 2024)",
  "binders": {"B1": {"name": "1944-A07 HC co-expressed with hOKT3-LC1 (antibody, V domains shown)", "VH": "EVQLVESGGGLVQPGGSLRLSCAASGFNITGYYIHWVRQAPGKGLEWVGYISPNSGSTYYADSVKGRFTISADTSKNTAYLQMNSLRAEDTAVYYCARDSRRYVRPFDYWGQGTLVTVSS", "VL": "DIQMTQSPSSLSASVGDRVTITCSASSSVSYMNWYQQKPGKAPKRLIYDTSKLASGVPSRFSGSGSGTEYTLTISSLQPEDFATYYCQQWSSNPFTFGQGTKLEIK"}, "B2": {"name": "1944-A07 HC co-expressed with hSP34-LC3 (antibody, V domains shown)", "VH": "EVQLVESGGGLVQPGGSLRLSCAASGFNITGYYIHWVRQAPGKGLEWVGYISPNSGSTYYADSVKGRFTISADTSKNTAYLQMNSLRAEDTAVYYCARDSRRYVRPFDYWGQGTLVTVSS", "VL": "QTVVTQEPSLTVSPGGTVTLTCGSSTGAVTSGYYPNWFQQKPGQAPRGLIGGTKFLAPGTPARFSGSLLGGKAALTLSGVQPEDEAEYYCALWYSNRWVFGGGTQLTVTG"}, "B3": {"name": "1987-C05 HC co-expressed with hUCHT1-LC3 (antibody, V domains shown)", "VH": "EVQLVESGGGLVQPGGSLRLSCAASGFNISDYDIHWVRQAPGKGLEWVGGIDPDDGSTDYADSVKGRFTISADTSKNTAYLQMNSLRAEDTAVYYCARDYGVFDYWGQGTLVTVSS", "VL": "DIQMTQSPSTLSASVGDRVTITCRASQDIRNYLNWYQQKPGKAPKLLIYYTSRLHSGVPSRFSGSGSGTEYTLTISSLQPDDFATYYCQQGNTLPWTFGGGTKVEIK"}, "B4": {"name": "1987-C05 HC co-expressed with hSP34-LC3 (antibody, V domains shown)", "VH": "EVQLVESGGGLVQPGGSLRLSCAASGFNISDYDIHWVRQAPGKGLEWVGGIDPDDGSTDYADSVKGRFTISADTSKNTAYLQMNSLRAEDTAVYYCARDYGVFDYWGQGTLVTVSS", "VL": "QTVVTQEPSLTVSPGGTVTLTCGSSTGAVTSGYYPNWFQQKPGQAPRGLIGGTKFLAPGTPARFSGSLLGGKAALTLSGVQPEDEAEYYCALWYSNRWVFGGGTQLTVTG"}, "B5": {"name": "1944-A07 HC co-expressed with hUCHT1-LC3 (antibody, V domains shown)", "VH": "EVQLVESGGGLVQPGGSLRLSCAASGFNITGYYIHWVRQAPGKGLEWVGYISPNSGSTYYADSVKGRFTISADTSKNTAYLQMNSLRAEDTAVYYCARDSRRYVRPFDYWGQGTLVTVSS", "VL": "DIQMTQSPSTLSASVGDRVTITCRASQDIRNYLNWYQQKPGKAPKLLIYYTSRLHSGVPSRFSGSGSGTEYTLTISSLQPDDFATYYCQQGNTLPWTFGGGTKVEIK"}},
  "key": {"[1]": {"biological_target": "ROR1 (recombinant protein coated on the ELISA plate in Example 11) (Homo sapiens (Human)) (UniProt Q01973)", "experiment": "ELISA, ROR1 coated on the plate, detection by HRP-conjugated anti-human Fc"}, "[2]": {"biological_target": "ROR1 (recombinant protein coated on the ELISA plate in Example 11) (Homo sapiens (Human)) (UniProt Q01973)", "experiment": "ELISA: 2 ug/mL ROR1 coated on the plate, antibody titrated 3-fold from 5 ug/mL, HRP anti-human Fc, chemiluminescence (RLU)"}},
  "note": "These are yes or no findings as the source states them, for the method shown. Some binding calls cover weakened binding; strength is not graded here.",
  "data": [
    {"binder": "B1", "values": [
      {"measurement": "binding", "setting": "[1]", "result": "binds"},
      {"measurement": "binding", "setting": "[2]", "result": "binds"}
    ]},
    {"binder": "B2", "values": [
      {"measurement": "binding", "setting": "[1]", "result": "binds"},
      {"measurement": "binding", "setting": "[2]", "result": "binds"}
    ]},
    {"binder": "B3", "values": [
      {"measurement": "binding", "setting": "[1]", "result": "binds"},
      {"measurement": "binding", "setting": "[2]", "result": "binds"}
    ]},
    {"binder": "B4", "values": [
      {"measurement": "binding", "setting": "[1]", "result": "binds"},
      {"measurement": "binding", "setting": "[2]", "result": "binds"}
    ]},
    {"binder": "B5", "values": [
      {"measurement": "binding", "setting": "[1]", "result": "binds"},
      {"measurement": "binding", "setting": "[2]", "result": "binds"}
    ]}
  ]
}
